These are yes or no findings as the source states them, for the method shown. Binding seen in cells or lysates may run through a third protein. Some binding calls cover weakened binding; strength is not graded here.
Legend:
[1] = molecular target: Ctf19-Mcm21 dimer, unmodified recombinant (Ctf19; 6His-Mcm21) (S. cerevisiae) (UniProt Q02732+Q06675); test: pull-down; 35S-labelled in vitro translated DDK (10 μl translation mix) with equal molar amounts of purified 6His-tagged Ctf19 complex proteins; Ni-NTA beads; 30mM Tris pH 8, 30mM imidazole, 150mM NaCl, 0.05% NP-40 substitute, 10% glycerol, 2mM β-mercaptoethanol; on ice; SDS-PAGE and …; only the target purified
[2] = molecular target: Ctf3 complex, trimeric assembly of Ctf3, Mcm16 and Mcm22 (all 6His-tagged) (S. cerevisiae) (UniProt Q12748+Q12262+P47167); test: as above

Chains of the proteins cited; added tags and fusions are not shown. Lines headed by an entry give the natural chain unless they say otherwise; changes in a name come on top.
UniProt Q02732: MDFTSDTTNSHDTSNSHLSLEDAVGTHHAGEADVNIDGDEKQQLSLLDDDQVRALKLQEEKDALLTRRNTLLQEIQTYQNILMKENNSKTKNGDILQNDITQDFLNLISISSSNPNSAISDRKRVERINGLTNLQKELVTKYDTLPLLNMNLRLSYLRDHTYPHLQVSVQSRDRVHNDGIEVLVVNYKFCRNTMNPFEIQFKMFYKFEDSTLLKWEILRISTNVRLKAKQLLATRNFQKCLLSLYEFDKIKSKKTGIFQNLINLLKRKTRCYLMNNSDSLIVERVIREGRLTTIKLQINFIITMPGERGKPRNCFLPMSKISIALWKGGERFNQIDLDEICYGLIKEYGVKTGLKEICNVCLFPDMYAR
UniProt Q06675: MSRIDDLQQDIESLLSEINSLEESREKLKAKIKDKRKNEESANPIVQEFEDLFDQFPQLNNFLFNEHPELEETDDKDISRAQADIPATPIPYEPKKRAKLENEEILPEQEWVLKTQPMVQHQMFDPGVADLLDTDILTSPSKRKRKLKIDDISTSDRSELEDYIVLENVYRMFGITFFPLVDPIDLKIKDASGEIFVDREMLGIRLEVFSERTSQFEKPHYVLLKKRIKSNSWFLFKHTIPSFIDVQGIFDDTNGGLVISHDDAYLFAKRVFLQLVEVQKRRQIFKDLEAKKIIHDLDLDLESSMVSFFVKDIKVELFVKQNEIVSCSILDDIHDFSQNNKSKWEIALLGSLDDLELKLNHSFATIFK
UniProt Q12748: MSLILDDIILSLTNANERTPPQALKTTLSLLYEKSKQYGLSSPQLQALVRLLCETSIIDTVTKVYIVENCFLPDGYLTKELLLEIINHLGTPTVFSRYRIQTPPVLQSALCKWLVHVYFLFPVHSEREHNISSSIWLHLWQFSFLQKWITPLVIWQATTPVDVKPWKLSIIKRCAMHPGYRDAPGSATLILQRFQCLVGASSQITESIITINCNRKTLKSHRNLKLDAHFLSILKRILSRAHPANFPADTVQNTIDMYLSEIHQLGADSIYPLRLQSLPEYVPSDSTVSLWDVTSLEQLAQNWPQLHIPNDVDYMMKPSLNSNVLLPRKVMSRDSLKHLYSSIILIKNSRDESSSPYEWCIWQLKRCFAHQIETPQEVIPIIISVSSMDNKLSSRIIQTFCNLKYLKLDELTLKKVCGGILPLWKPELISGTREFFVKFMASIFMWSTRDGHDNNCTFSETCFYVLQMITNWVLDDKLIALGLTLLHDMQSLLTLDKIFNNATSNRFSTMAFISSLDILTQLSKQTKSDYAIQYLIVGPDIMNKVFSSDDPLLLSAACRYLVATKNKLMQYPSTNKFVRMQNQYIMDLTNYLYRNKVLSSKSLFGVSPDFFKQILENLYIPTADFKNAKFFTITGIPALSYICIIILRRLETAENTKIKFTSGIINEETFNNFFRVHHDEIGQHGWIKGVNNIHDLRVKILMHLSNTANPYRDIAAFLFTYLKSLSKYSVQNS
UniProt Q12262: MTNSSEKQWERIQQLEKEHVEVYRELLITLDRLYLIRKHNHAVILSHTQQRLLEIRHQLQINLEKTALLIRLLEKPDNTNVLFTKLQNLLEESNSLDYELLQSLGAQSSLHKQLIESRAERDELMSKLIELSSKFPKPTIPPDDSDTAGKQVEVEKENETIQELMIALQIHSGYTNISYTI
UniProt P47167: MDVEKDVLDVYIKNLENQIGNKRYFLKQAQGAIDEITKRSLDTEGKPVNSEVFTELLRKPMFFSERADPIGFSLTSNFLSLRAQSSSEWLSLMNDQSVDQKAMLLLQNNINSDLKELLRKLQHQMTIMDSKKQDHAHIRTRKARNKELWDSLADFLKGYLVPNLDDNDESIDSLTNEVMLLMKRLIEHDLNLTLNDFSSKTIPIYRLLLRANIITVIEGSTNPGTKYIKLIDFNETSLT
UniProt P06243: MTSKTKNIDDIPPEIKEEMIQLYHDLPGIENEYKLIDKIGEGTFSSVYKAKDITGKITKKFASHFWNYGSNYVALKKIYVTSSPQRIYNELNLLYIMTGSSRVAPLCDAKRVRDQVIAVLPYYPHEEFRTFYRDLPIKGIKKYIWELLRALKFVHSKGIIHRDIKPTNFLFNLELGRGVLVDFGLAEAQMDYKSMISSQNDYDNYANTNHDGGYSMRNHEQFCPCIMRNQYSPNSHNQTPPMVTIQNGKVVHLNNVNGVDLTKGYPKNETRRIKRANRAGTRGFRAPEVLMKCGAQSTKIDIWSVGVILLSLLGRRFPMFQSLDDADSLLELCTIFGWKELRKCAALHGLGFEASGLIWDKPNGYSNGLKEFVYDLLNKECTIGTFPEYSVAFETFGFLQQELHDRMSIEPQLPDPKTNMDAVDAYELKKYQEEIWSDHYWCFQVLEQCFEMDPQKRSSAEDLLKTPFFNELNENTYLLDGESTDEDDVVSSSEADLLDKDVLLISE

Dbf4-dependent kinase (DDK), Dbf4 and Cdc7 translated in vitro together (from UniProt P06243 1-507; P32325 1-704) (complex)
binding [1]: binds
binding [2]: binds
